The target in test [1] is T1, GST-HYP (Drosophila) (UniProt Q8ML92).
T1 sequence: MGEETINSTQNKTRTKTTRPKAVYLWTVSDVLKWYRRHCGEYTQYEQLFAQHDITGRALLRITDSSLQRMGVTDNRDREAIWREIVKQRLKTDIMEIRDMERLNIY
As to the kind of experiment: pull-down; GST-HYP as bait, Flag-CNK^2–549 variants co-expressed in S2 cells without other pathway components (binary CNK–HYP interaction); total lysates, overnight at 4 °C; immunoblot. (In western blotting, separated proteins are transferred to a membrane and probed.)

Test [2] addresses CNK^CRIC N96E (Flag-CNK^2–549 assumed) (Drosophila). The test can be described thus: pull-down; GST-HYP as bait, CNK, KSR and MEK variants co-expressed in S2 cells (Fig. 2c,d; Extended Data Fig. 7e); total lysates, overnight at 4 °C; immunoblot.
In test [3] the target is CNK^CRIC R99E (Flag-CNK^2–549 assumed) (Drosophila). Described as above.
Test [4] addresses CNK^SAM R46F (Flag-CNK^2–549 assumed) (Drosophila). The test is described as above.
Test [5] has as its target CNK^SAM Y76R (Flag-CNK^2–549 assumed) (Drosophila). Described as above.

No constants are given. Whether binding was seen depends on the method and setting. In cells and extracts the contact can be indirect. Binding can be weak; no strength is given. Sequences can lack the tags named with a protein.

For the molecule “CNK^CRIC N82W (Flag-CNK^2–549 assumed) (Drosophila) (domain or fragment)”, in test [1], the binding result was “binds”.

“CNK^SAM R46F (Flag-CNK^2–549 assumed) (Drosophila) (domain or fragment)”: the binding result in test [1] is “binds”.

On to “CNK^CRIC N96E (Flag-CNK^2–549 assumed) (Drosophila) (domain or fragment)”, for which the binding entry in test [1] was “binds”.

In the case of “CNK^CRIC N82E (Flag-CNK^2–549 assumed) (Drosophila) (domain or fragment)”, the binding entry in test [1] is listed as “binds”. Still for that read-out and setting: to “CNK^CRIC R99E (Flag-CNK^2–549 assumed) (Drosophila) (domain or fragment)” belongs “binds”; to “CNK^CRIC Q84E (Flag-CNK^2–549 assumed) (Drosophila) (domain or fragment)”, “binds”; to “CNK^SAM Y76R (Flag-CNK^2–549 assumed) (Drosophila) (domain or fragment)”, “binds”.

B1: V5-KSR (protein, UniProt Q24171 1-966)
chain: MSSNNNAPASAPDTGSTNANDPISGSLSVDSNLVIIQDMIDLSANHLEGLRTQCAISSTLTQQEIRCLESKLVRYFSELLLAKMRLNERIPANGLVPHTTGNELRQWLRVVGLSQGTLTACLARLTTLEQSLRLSDEEIRQLLADSPSQREEEELRRLTRAMQNLRKCMESLESGTAASNNDPEQWHWDSWDRPTHIHRGSVGNIGLGNNSTASPRTHHRQHGVKGKNSALANSTNFKSGRQSPSATEELNSTQGSQLTLTLTPSPPNSPFTPSSGLSSSLNGTPQRSRGTPPPARKHQTLLSQSHVQVDGEQLARNRLPTDPSPDSHSSTSSDIFVDPNTNASSGGSSSNVLMVPCSPGVGHVGMGHAIKHRFTKALGFMATCTLCQKQVFHRWMKCTDCKYICHKSCAPHVPPSCGLPREYVDEFRHIKEQGGYASLPHVHGAAKGSPLVKKSTLGKPLHQQHGDSSSPSSSCTSSTPSSPALFQQRERELDQAGSSSSANLLPTPSLGKHQPSQFNFPNVTVTSSGGSGGVSLISNEPVPEQFPTAPATANGGLDSLVSSSNGHMSSLIGSQTSNASTAATLTGSLVNSTTTTSTCSFFPRKLSTAGVDKRTPFTSEYTDTHKSNDSDKTVSLSGSASTDSDRTPVRVDSTEDGDSGQWRQNSISLKEWDIPYGDLLLLERIGQGRFGTVHRALWHGDVAVKLLNEDYLQDEHMLETFRSEVANFKNTRHENLVLFMGACMNPPYLAIVTSLCKGNTLYTYIHQRREKFAMNRTLLIAQQIAQGMGYLHAREIIHKDLRTKNIFIENGKVIITDFGLFSSTKLLYCDMGLGVPHNWLCYLAPELIRALQPEKPRGECLEFTPYSDVYSFGTVWYELICGEFTFKDQPAESIIWQVGRGMKQSLANLQSGRDVKDLLMLCWTYEKEHRPQFARLLSLLEHLPKKRLARSPSHPVNLSRSAESVF
Take B1: the binding entry in test [2], in test [3], in test [4] and in test [5] was “binds” each time.

The values above are taken from PMC11257983 (2024).
